Measurements reported in PubChem BioAssay AID1259425 (University of Nebraska Medical Center, 2018).

Screen: 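Seek colon cancer weak points whose silencing resembles KSR1 loss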 (primary screen)
Cell system: HCT116 human colon cancer cells
Reagent: siRNA pool against human genes, 50 nM siRNA
Detection: 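After 50 nM siRNA pool, branched-DNA assay measures six marker transcripts per well, minus blank, normalised to the geometric mean of two housekeeping transcripts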
Direction: BNIP3L mRNA: higher = more BNIP3L transcript after knockdown; NDRG1 mRNA: higher = more NDRG1 transcript after knockdown; BNIP3 mRNA: higher = more BNIP3 transcript after knockdown; ALDOC mRNA: higher = more ALDOC transcript after knockdown; ACSL5 mRNA: higher = more ACSL5 transcript after knockdown
Shown is a random part of about 14,000 reagents tested. No sequences are given here. Not given: the time to read-out.

| gene | PubChem SID | BNIP3L mRNA, set 1 | NDRG1 mRNA, set 1 | BNIP3 mRNA, set 1 | ALDOC mRNA, set 1 | ACSL5 mRNA, set 1 |
| --- | --- | --- | --- | --- | --- | --- |
| MT3 (metallothionein 3) | SID363996816 | 0.0778 | 0.155 | 0.377 | 0.0164 | 0.127 |
| CASP8AP2 (caspase 8 associated protein 2) | SID363998063 | 0.129 | 0.536 | 0.281 | 0.015 | 0.243 |
| MRPL35 (mitochondrial ribosomal protein L35) | SID364000245 | 0.455 | 0.528 | 1.53 | 0.255 | 0.125 |
| SEMA5B (semaphorin 5B) | SID364001309 | 0.118 | 0.246 | 0.308 | 0.0738 | 0.158 |
| PRG2 (proteoglycan 2, pro eosinophil major basic protein) | SID363993886 | 0.0548 | 0.156 | 0.216 | 0.0136 | 0.17 |
| PTPRG (protein tyrosine phosphatase receptor type G) | SID363993997 | 0.0893 | 0.0804 | 0.339 | 0.00688 | 0.187 |
| ZNF184 (zinc finger protein 184) | SID363997853 | 0.0643 | 0.123 | 0.325 | 0.0229 | 0.0877 |
| SPINT1 (serine peptidase inhibitor, Kunitz type 1) | SID363994779 | 0.107 | 0.213 | 0.242 | 0.0231 | 0.144 |
| GAREM1 (GRB2 associated regulator of MAPK1 subtype 1) | SID364002526 | 0.133 | 0.651 | 0.253 | 0.0716 | 0.142 |
| RPAP3 (RNA polymerase II associated protein 3) | SID364002907 | 0.279 | 0.838 | 0.533 | 0.123 | 0.54 |
| OR1A1 (olfactory receptor family 1 subfamily A member 1) | SID363998937 | 0.265 | 0.639 | 0.349 | 0.0399 | 0.221 |
| POM121 (POM121 transmembrane nucleoporin) | SID364004806 | 0.105 | 0.12 | 0.335 | 0.0292 | 0.176 |
| ARPC4 (actin related protein 2/3 complex subunit 4) | SID363996604 | 0.16 | 0.223 | 0.396 | 0.0349 | 0.191 |
| ZFR2 (zinc finger RNA binding protein 2) | SID364005199 | 0.147 | 0.246 | 0.282 | 0.0203 | 0.165 |
| MYBBP1A (MYB binding protein 1a) | SID363998921 | 0.119 | 0.756 | 0.244 | 0.027 | 0.282 |
| EPAS1 (endothelial PAS domain protein 1) | SID363992694 | 0.0685 | 0.147 | 0.214 | 0.0168 | 0.0754 |
| AGPAT4-IT1 (AGPAT4 intronic transcript 1) | SID364003169 | 0.199 | 0.502 | 0.422 | 0.0927 | 0.186 |
| VN1R5 (vomeronasal 1 receptor 5 (gene/pseudogene)) | SID364004851 | 0.265 | 0.412 | 0.731 | 0.0803 | 0.155 |
| NDUFB7 (NADH:ubiquinone oxidoreductase subunit B7) | SID363995153 | 0.33 | 0.974 | 1.49 | 0.238 | 0.233 |
| PHLPP2 (PH domain and leucine rich repeat protein phosphatase 2) | SID364005137 | 0.0903 | 0.19 | 0.309 | 0.0127 | 0.14 |
| HAP1 (huntingtin associated protein 1) | SID363995004 | 0.119 | 0.131 | 0.265 | 0.0218 | 0.131 |
| TNNI3K (TNNI3 interacting kinase) | SID363999767 | 0.159 | 0.161 | 0.729 | 0.02 | 0.201 |
| TONSL (tonsoku like, DNA repair protein) | SID363998511 | 0.0941 | 0.0876 | 0.3 | 0.00717 | 0.15 |
| CAMK2G (calcium/calmodulin dependent protein kinase II gamma) | SID363992507 | 0.101 | 0.196 | 0.378 | 0.0188 | 0.152 |
| FCN2 (ficolin 2) | SID363995118 | 0.0837 | 0.176 | 0.111 | 0.0113 | 0.166 |
| COX7A2L (cytochrome c oxidase subunit 7A2 like) | SID363995677 | 0.087 | 0.308 | 0.143 | 0.013 | 0.186 |
| SSRP1 (structure specific recognition protein 1) | SID363994286 | 0.133 | 0.368 | 0.231 | 0.0056 | 0.189 |
| CEP170 (centrosomal protein 170) | SID363999123 | 0.0747 | 0.115 | 0.252 | 0.0158 | 0.12 |
| SRRM4 (serine/arginine repetitive matrix 4) | SID364005514 | 0.499 | 0.366 | 0.918 | 0.228 | 1.57 |
| SLC9A2 | SID363994197 | 0.0747 | 0.286 | 0.321 | 0.038 | 0.191 |
| SLC35D1 | SID363999324 | 0.0789 | 0.141 | 0.236 | 0.0132 | 0.102 |
| GJA10 (gap junction protein alpha 10) | SID364004090 | 0.123 | 0.112 | 0.294 | 0.0186 | 0.234 |
| NTNG1 (netrin G1) | SID364005552 | 0.129 | 0.248 | 0.182 | 0.0506 | 0.265 |
| GRM4 (glutamate metabotropic receptor 4) | SID363992128 | 0.166 | 0.261 | 0.319 | 0.043 | 0.215 |
| PBX3 (PBX homeobox 3) | SID363997021 | 0.0774 | 0.193 | 0.224 | 0.0161 | 0.153 |
| MTMR14 (myotubularin related protein 14) | SID364002470 | 0.0741 | 0.184 | 0.226 | 0.0126 | 0.109 |
| KIAA1191 | SID364001701 | 0.0807 | 0.107 | 0.225 | 0.0352 | 0.115 |
| MAP3K12 (mitogen-activated protein kinase kinase kinase 12) | SID363997123 | 0.108 | 0.154 | 0.267 | 0.0101 | 0.0868 |
| ZNF536 (zinc finger protein 536) | SID364005541 | 0.163 | 0.464 | 0.282 | 0.0699 | 0.164 |
| DGKB (diacylglycerol kinase beta) | SID363995090 | 0.164 | 0.0977 | 0.368 | 0.0119 | 0.303 |
| ARHGEF10 (Rho guanine nucleotide exchange factor 10) | SID363998997 | 0.136 | 0.159 | 0.393 | 0.0381 | 0.208 |
| MAPK7 (mitogen-activated protein kinase 7) | SID363993907 | 0.215 | 0.0362 | 0.22 | 0.00627 | 0.0748 |
| MAP3K14 (mitogen-activated protein kinase kinase kinase 14) | SID363995009 | 0.116 | 0.0612 | 0.321 | 0.0143 | 0.0278 |
| MYCBP2 (MYC binding protein 2) | SID363999276 | 0.0889 | 0.167 | 0.319 | 0.0245 | 0.25 |
| ZNF223 (zinc finger protein 223) | SID363998469 | 0.2 | 0.122 | 0.266 | 0.0179 | 0.334 |
| UPP1 (uridine phosphorylase 1) | SID363994476 | 0.131 | 0.106 | 0.331 | 0.0386 | 0.153 |
| RAPGEF4 (Rap guanine nucleotide exchange factor 4) | SID363997755 | 0.0851 | 0.0772 | 0.258 | 0.00689 | 0.148 |
| ALOX15B (arachidonate 15-lipoxygenase type B) | SID363992433 | 0.0695 | 0.042 | 0.353 | 0.0193 | 0.123 |
| RNF38 (ring finger protein 38) | SID364002553 | 0.0758 | 0.0631 | 0.247 | 0.0219 | 0.166 |
| IGSF9B (immunoglobulin superfamily member 9B) | SID364005332 | 0.123 | 0.117 | 0.272 | 0.0197 | 0.191 |

8 neighbouring reagents from above, for reference:
| gene | PubChem SID | BNIP3L mRNA, set 1 | NDRG1 mRNA, set 1 | BNIP3 mRNA, set 1 | ALDOC mRNA, set 1 | ACSL5 mRNA, set 1 |
| --- | --- | --- | --- | --- | --- | --- |
| PTPRG (protein tyrosine phosphatase receptor type G) | SID363993997 | 0.0893 | 0.0804 | 0.339 | 0.00688 | 0.187 |
| ZNF184 (zinc finger protein 184) | SID363997853 | 0.0643 | 0.123 | 0.325 | 0.0229 | 0.0877 |
| SPINT1 (serine peptidase inhibitor, Kunitz type 1) | SID363994779 | 0.107 | 0.213 | 0.242 | 0.0231 | 0.144 |
| GAREM1 (GRB2 associated regulator of MAPK1 subtype 1) | SID364002526 | 0.133 | 0.651 | 0.253 | 0.0716 | 0.142 |
| RPAP3 (RNA polymerase II associated protein 3) | SID364002907 | 0.279 | 0.838 | 0.533 | 0.123 | 0.54 |
| OR1A1 (olfactory receptor family 1 subfamily A member 1) | SID363998937 | 0.265 | 0.639 | 0.349 | 0.0399 | 0.221 |
| POM121 (POM121 transmembrane nucleoporin) | SID364004806 | 0.105 | 0.12 | 0.335 | 0.0292 | 0.176 |
| ARPC4 (actin related protein 2/3 complex subunit 4) | SID363996604 | 0.16 | 0.223 | 0.396 | 0.0349 | 0.191 |
